Here are results for ten molecules from patent publication US20190367589A1.

Chains of the proteins cited; added tags and fusions are not shown. Residues count along the entry.
UniProt P78504, residues 34-1067: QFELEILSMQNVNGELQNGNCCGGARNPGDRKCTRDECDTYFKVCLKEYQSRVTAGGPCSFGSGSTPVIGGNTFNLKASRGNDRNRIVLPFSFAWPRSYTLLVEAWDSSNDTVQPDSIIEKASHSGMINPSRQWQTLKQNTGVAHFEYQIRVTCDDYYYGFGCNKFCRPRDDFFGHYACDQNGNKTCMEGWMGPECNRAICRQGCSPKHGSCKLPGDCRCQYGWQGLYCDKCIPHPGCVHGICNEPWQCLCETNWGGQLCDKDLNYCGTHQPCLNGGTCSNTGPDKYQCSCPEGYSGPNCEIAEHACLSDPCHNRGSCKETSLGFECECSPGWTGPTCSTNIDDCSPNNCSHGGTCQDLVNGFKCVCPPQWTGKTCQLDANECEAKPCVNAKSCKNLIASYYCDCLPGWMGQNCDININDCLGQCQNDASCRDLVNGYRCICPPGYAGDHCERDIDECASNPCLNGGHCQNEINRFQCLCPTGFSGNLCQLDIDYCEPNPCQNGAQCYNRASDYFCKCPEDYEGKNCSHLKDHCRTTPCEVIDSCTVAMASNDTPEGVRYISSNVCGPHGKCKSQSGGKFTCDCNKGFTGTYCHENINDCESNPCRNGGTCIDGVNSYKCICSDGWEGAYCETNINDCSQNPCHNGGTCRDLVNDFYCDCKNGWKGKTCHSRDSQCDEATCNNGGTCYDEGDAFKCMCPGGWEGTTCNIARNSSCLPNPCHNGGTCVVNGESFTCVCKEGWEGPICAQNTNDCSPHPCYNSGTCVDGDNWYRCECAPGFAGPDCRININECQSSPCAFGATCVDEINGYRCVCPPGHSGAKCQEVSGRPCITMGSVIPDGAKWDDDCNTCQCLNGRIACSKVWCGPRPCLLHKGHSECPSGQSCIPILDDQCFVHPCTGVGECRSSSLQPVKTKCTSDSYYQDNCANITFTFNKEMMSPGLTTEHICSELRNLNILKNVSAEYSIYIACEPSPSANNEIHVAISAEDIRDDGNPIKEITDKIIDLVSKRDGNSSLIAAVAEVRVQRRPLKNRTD
UniProt Q63722, residues 34-1067: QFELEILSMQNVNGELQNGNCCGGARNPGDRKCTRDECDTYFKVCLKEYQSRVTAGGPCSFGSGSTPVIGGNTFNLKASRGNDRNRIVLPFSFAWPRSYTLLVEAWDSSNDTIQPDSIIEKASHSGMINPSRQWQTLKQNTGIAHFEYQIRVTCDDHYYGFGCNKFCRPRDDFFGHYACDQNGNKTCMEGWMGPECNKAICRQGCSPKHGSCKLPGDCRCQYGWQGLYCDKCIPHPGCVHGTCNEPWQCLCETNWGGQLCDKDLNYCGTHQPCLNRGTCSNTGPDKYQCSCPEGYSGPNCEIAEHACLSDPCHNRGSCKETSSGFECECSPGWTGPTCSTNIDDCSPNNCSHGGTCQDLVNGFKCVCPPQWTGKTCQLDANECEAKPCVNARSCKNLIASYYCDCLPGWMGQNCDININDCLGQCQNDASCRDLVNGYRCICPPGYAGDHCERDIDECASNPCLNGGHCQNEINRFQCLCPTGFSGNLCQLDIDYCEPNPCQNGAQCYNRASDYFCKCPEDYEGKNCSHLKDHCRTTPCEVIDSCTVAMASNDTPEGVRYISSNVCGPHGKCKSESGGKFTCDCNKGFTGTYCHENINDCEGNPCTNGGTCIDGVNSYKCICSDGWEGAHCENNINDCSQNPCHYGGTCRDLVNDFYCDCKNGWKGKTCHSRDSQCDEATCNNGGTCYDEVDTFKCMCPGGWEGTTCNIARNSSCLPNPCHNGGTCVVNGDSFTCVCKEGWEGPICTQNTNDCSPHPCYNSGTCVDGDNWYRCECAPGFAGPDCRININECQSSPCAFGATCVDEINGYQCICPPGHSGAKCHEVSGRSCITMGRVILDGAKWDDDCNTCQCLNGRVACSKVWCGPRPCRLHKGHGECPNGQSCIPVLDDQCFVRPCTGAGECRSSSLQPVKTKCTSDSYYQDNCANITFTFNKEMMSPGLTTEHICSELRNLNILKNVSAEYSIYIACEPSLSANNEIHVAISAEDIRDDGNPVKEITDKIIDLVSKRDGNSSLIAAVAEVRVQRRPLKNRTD
UniProt Q9Y219, residues 27-1080: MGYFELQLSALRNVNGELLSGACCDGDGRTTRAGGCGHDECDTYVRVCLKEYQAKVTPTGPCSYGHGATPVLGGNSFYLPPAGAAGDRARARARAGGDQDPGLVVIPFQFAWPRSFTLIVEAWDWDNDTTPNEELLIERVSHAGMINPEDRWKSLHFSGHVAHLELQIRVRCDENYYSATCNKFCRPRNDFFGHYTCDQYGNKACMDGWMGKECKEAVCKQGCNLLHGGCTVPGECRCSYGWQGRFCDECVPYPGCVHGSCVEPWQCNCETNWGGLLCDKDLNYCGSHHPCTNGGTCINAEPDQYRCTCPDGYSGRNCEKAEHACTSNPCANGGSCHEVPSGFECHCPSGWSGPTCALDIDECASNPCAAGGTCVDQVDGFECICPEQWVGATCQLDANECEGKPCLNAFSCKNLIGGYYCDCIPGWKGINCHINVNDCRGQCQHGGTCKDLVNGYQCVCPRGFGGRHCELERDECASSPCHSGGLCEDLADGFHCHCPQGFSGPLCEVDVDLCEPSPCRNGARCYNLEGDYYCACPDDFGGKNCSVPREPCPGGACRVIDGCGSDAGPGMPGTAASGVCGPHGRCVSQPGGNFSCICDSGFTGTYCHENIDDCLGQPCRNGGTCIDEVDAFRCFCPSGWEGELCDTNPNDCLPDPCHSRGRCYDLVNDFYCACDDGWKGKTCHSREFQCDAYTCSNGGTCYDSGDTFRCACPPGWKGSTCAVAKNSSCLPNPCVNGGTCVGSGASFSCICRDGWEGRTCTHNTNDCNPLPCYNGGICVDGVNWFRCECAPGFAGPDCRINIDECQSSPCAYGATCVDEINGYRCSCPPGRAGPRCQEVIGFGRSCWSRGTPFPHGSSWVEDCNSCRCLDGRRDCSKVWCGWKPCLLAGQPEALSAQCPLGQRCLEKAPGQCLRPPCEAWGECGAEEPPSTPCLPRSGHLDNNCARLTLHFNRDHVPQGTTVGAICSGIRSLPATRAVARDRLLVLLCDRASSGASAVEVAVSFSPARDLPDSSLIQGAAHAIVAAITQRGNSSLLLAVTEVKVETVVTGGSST

Assay [1] addresses human Jagged 1-Fc (extracellular domain of human Jagged 1 fused to the Fc portion of human IgG1; R&D Systems Cat#1277-JG-050) (human) (UniProt P78504). Kind of assay: phage ELISA, ligand coated. For orientation: In an ELISA, binding on a coated surface is turned into a signal by an enzyme label.
For assay [2], the target named is rat Jagged 1-Fc (R&D Systems Cat #599-JG-100) (rat) (UniProt Q63722). The assay is described as follows: phage ELISA, ligand coated.
Assay [3] addresses human Jagged 1-Fc (extracellular domain of human Jagged 1 fused to the Fc portion of human IgG1; R&D Systems Cat#1277-JG-050) (human) (UniProt P78504). The assay is described as follows: competition ELISA: Notch 1-Fc coated, biotinylated Jagged 1-Fc with increasing antibody.
The target is the same in assay [4]. Kind of assay: ELISA: Jagged-Fc coated, purified IgG titrated, anti-human IgG (Fab specific)-HRP and TMB, A450.
Assay [5] has as its target human Jagged 2-Fc (R&D Systems Cat #1726-JG-050) (human) (UniProt Q9Y219). The assay is described as above.
For assay [6], the target named is human Jagged 1-Fc (extracellular domain of human Jagged 1 fused to the Fc portion of human IgG1; R&D Systems Cat#1277-JG-050) (human) (UniProt P78504). Kind of assay: competition ELISA: human Notch 1-Fc coated, biotinylated human Jagged 1-Fc applied with rising antibody, streptavidin-HRP, A450.
The target is the same in assay [7]. The assay is described as follows: phage display selection on human Jagged 1-Fc.

Substitutions are numbered along the chain they refer to. Results are given in words; binding and its absence hold for the method and conditions named. Some results given as binding are weak or reduced against the parent protein; the word gives no strength.

B1: 346.4 (Fab, V domains shown)
VH: EVQLLESGGGLVQPGGSLRLSCAASGFTFSSYAMSWVRQAPGKGLEWVSSIEQMGWQTYYADSVKGRFTISRDNSKNTLYLQMNSLRAEDTAVYYCAKDIGGRSAFDYWGQGTLVTVSS
VL: DIQMTQSPSSLSASVGDRVTITCRASQSISSYLNWYQQKPGKAPKLLIYAASSLQSGVPSRFSGSGSGTDFTLTISSLQPEDFATYYCQQSVVAPLTFGQGTKVEIKR
B1: the binding entry in assay [1] and in assay [2] was “binds” throughout.

B2: 346.26 (Fab, V domains shown)
VH: B1 VH
VL: B1 VL
B2: the binding entry in assay [1] and in assay [2] was “binds” throughout.

B3: 346.31 (Fab, V domains shown)
VH: B1 VH
VL: B1 VL
Regarding B3, the binding entry in assay [1] and in assay [2] was “binds” each time.

B4: 346.21 (Fab, V domains shown)
VH: B1 VH
VL: B1 VL
As to B4, in assay [1], the binding result is “binds”.

B5: anti-Jagged 13 IgG (antibody, V domains shown)
VH: EVQLLESGGGLVQPGGSLRLSCAASGFTFSSYAMSWVRQAPGKGLEWVSSIETQGPTTLYADSVKGRFTISRDNSKNTLYLQMNSLRAEDTAVYYCAKTSSAFDYWGQGTLVTVSS
VL: DIQMTQSPSSLSASVGDRVTITCRASQSISSYLNWYQQKPGKAPKLLIYASSLQSGVPSRFSGSGSGTDFTLTIGSLQPEDFATYYCQQNVATPLTFGQGTKVEIKR
As to B5, the binding result in assay [3], in assay [4] and in assay [5] was “binds” each time.

B6: anti-Jagged 32 IgG (antibody, V domains shown)
VH: B5 VH with T53Q, Q54M, P56W, T57Q, L59Y, T99S, S100A, S101A
VL: B5 VL with S51A, G75S, N90T, A92V, T93A
Take B6: the binding entry in assay [3], in assay [4] and in assay [6] was “binds” each time.

B7: 346.39 (Fab, V domains shown)
VH: B5 VH with T53Q, Q54M, P56W, T57Q, L59E, T99S, S100A, S101A
VL: B1 VL
As for B7, the binding result in assay [1] is recorded as “binds”.

B8: ScFv Jagged 32 (scFv)
scFv: EVQLLESGGGLVQPGGSLRLSCAASGFTFSSYAMSWVRQAPGKGLEWVSSIEQMGWQTYYADSVKGRFTISRDNSKNTLYLQMNSLRAEDTAVYYCAKSAAAFDYWGQGTLVTVSSGGGGSGGGGSGGGGSTDIQMTQSPSSLSASVGDRVTITCRASQSISSYLNWYQQKPGKAPKLLIYAASLQSGVPSRFSGSGSGTDFTLTISSLQPEDFATYYCQQTVVAPLTFGQGTKVEIKR
Take B8: the binding result in assay [7] is “binds”.

B9: ScFv Jagged 13 (scFv)
scFv: EVQLLESGGGLVQPGGSLRLSCAASGFTFSSYAMSWVRQAPGKGLEWVSSIETQGPTTLYADSVKGRFTISRDNSKNTLYLQMNSLRAEDTAVYYCAKTSSAFDYWGQGTLVTVSSGGGGSGGGGSGGGGSTDIQMTQSPSSLSASVGDRVTITCRASQSISSYLNWYQQKPGKAPKLLIYASSLQSGVPSRFSGSGSGTDFTLTIGSLQPEDFATYYCQQNVATPLTFGQGTKVEIKR
On to B9, for which the binding result in assay [7] is given as “binds”.

B10: ScFv Jagged 2 (scFv)
scFv: EVQLLESGGGLVQPGGSLRLSCAASGFTFSSYAMSWVRQAPGKGLEWVSAIAELGALTQYADSVKGRFTISRDNSKNTLYLQMNSLRAEDTAVYYCARAHTSFDYWGQGTLVTVSSGGGGSGGGGSGGGGSTDIQMTQSPSSLSASVGDRVTITCRASQSISSYLNWYQQKPGKAPKLLIYKASTLSGVPSRFSGSGSGTDFTLTISSLQPEDFATYYCQQAMDQPPTFGQGTKVEIKR
For the molecule B10, the binding result in assay [7] is listed as “binds”.
